Results on two substances are retold here after paper doi:10.1101/2022.01.19.476979 (bioRxiv, 2022).

The chains behind the UniProt entries cited, without tags or fusion partners.
UniProt Q08AI8: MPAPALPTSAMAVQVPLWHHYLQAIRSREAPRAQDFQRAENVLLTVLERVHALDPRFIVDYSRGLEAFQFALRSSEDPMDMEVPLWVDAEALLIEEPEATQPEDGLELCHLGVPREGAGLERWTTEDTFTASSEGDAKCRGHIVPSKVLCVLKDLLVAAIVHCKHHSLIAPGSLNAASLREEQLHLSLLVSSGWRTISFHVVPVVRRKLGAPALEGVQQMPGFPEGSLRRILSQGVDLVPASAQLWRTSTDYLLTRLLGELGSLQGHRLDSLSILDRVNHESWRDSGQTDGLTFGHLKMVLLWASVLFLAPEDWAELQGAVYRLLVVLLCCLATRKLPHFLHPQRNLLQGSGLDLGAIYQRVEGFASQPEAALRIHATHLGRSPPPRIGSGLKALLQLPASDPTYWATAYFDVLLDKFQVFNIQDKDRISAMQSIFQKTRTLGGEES
UniProt Q92817: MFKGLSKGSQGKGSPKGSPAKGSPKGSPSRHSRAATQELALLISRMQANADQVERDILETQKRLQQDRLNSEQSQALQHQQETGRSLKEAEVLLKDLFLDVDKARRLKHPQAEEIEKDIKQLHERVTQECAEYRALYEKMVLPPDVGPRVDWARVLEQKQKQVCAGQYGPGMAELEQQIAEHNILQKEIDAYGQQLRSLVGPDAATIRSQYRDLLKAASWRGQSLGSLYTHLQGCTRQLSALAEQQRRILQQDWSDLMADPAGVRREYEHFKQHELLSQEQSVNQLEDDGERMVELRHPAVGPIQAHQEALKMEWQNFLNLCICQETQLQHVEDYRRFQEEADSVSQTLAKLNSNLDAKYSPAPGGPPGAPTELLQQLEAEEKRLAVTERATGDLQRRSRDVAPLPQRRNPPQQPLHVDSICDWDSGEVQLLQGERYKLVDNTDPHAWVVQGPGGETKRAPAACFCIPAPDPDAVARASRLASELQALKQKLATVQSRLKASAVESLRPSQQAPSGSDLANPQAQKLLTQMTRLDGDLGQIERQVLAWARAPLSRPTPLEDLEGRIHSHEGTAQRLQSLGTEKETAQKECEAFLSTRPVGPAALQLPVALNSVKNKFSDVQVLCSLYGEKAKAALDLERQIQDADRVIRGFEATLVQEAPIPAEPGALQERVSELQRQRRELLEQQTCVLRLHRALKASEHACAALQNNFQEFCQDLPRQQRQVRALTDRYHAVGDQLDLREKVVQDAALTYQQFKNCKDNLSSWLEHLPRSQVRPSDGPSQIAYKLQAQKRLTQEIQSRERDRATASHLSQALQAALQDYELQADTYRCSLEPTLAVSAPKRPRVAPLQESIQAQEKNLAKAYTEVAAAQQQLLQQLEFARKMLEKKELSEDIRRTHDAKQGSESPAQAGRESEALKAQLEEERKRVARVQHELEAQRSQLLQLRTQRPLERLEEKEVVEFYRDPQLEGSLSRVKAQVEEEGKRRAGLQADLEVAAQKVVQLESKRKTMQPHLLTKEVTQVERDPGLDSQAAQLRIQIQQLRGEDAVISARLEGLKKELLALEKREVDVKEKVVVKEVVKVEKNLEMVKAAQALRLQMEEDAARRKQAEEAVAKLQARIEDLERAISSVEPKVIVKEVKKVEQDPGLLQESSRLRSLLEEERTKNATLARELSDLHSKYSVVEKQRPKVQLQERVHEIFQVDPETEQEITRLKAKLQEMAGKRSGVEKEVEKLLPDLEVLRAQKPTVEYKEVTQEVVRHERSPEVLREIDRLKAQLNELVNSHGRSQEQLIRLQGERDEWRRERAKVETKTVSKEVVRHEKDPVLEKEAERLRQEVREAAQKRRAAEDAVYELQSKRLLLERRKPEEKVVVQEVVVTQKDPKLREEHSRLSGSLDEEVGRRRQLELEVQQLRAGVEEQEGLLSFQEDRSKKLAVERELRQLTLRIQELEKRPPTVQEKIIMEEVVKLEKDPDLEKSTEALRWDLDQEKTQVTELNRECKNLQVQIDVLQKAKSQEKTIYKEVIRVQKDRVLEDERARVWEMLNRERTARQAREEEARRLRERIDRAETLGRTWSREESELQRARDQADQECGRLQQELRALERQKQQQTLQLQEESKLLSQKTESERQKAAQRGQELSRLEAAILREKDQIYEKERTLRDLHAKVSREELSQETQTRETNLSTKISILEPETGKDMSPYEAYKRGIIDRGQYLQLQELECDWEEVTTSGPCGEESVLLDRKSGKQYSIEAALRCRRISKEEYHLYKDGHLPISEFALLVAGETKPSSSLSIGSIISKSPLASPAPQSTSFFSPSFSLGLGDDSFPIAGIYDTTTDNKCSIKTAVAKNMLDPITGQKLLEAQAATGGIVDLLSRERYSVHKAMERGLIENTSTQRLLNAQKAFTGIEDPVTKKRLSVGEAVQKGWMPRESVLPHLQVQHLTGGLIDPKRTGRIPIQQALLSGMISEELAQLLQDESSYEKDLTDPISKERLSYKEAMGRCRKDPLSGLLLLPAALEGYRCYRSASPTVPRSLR
UniProt O60437: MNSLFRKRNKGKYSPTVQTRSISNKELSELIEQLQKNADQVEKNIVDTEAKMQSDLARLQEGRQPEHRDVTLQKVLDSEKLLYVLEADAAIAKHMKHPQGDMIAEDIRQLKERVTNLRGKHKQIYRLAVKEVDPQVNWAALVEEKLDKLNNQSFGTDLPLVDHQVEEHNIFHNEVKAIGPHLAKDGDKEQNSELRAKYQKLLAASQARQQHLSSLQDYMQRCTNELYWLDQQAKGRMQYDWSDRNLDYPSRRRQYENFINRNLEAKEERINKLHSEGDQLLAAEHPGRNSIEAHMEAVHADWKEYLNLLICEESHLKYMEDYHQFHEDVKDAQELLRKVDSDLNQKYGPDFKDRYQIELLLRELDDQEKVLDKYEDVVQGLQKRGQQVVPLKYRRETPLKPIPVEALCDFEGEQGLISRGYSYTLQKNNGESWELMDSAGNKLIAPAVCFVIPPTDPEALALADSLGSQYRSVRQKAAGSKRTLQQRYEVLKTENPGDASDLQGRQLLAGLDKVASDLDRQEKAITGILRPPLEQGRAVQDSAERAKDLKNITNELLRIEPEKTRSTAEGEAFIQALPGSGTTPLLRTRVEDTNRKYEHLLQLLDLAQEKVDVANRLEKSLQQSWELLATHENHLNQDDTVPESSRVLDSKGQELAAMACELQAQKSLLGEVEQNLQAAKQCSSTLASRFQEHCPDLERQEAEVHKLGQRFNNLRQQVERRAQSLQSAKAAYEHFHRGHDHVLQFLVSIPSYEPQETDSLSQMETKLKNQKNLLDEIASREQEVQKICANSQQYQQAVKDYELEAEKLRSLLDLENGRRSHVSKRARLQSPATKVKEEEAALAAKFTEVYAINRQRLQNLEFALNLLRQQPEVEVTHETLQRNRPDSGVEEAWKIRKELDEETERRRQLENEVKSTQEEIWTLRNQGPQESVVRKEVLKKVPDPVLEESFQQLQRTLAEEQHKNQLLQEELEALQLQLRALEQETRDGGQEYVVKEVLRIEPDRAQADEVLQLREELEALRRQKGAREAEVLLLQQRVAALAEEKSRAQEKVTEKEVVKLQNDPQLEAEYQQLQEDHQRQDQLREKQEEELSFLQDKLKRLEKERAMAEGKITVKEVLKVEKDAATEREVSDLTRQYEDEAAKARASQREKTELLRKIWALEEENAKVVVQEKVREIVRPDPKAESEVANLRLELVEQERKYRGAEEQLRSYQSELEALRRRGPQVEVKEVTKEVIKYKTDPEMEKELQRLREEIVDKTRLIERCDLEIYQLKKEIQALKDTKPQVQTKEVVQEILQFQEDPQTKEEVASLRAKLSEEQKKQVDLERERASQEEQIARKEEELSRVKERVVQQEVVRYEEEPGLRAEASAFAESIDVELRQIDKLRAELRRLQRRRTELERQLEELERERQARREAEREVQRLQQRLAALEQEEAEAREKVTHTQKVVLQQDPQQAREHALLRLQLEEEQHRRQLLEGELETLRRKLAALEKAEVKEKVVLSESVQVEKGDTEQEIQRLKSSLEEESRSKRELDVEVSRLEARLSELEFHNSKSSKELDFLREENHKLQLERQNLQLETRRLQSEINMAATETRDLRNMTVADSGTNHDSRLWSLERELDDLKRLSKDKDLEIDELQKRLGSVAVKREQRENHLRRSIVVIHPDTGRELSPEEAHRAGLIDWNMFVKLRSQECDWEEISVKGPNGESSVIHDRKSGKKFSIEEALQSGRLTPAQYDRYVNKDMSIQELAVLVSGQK

This assay has as its target 3xHA-BASU-MAB21L4 (human) (UniProt Q08AI8). Nature of the assay: proximity labelling.

Results are given in words; binding and its absence hold for the method and conditions named. Binding seen in cells or lysates may run through a third protein. Here binding means that the protein was enriched with, or labelled near, the bait; the list need not be complete.

“envoplakin, endogenous in human skin organoids (from UniProt Q92817 1-2033)”: the binding result is recorded as “binds”.
On to “periplakin, endogenous in human skin organoids (from UniProt O60437 1-1756)”, for which the binding entry is given as “binds”.
